Experimental data reported in paper PMC12691643.
These are yes or no findings as the source states them, for the method shown. Binding seen in cells or lysates may run through a third protein. Here binding means that the protein was enriched with, or labelled near, the bait; the list need not be complete.

B1: Arhgef6, endogenous in murine DC2.4 cells (protein, UniProt Q8K4I3 1-771)
chain: MNPEERLVTWLISLGVLESPKKTVCDPEEFLKSSLKNGVVLCKLINRLLPGSVEKYCLEPQTEADCIDNINDFLKGCATLQVEVFEPDDLYSGANFSKVLNTLLAVNKATEDQLSERPCGRSSSLSAATSSQTNPQVAVPSTAPEQHSEEKAEMTENGSHQLIVKARFNFKQTNEDELSVCKGDIIYVTRVEEGGWWEGTLNGRTGWFPSNYVREIKPSERPLSPKAIKGFDTAPLTKNYYTVVLQNILDTEKEYAKELQSLLVTYLRPLQSNNNLSTVEFTCLLGNFEEVCTFQQTLCQALEECSKFPENQHKVGGCLLNLMPHFKSMYLAYCANHPSAVNVLTQHSDDLERFMENQGASSPGILILTTSLSKPFMRLEKYVTLLQELERHMEDTHPDHQDILKAIIAFKTLMGQCQDLRKRKQLELQILSEPIQAWEGDDIKTLGNVIFMSQVVMQHGACEEKEERYFLLFSSVLIMLSASPRMSGFMYQGKIPIAGMVVNRLDEIEGSDCMFEITGSTVERIVVHCNNNQDFQEWMEQLNRLTKGPTSCGSLSKTSSSSCSTHSSFSSTGQPRGPLEPPQIIKPWSLSCLRPAPPLRPSAALGYKERMSYILKESSKSPKTMKKFLHKRKTERKASEEEYVIRKSTAALEEDAQILKVIEAYCTSASFQQGTRKDSVPQVLLPEEEKLIIEETRSNGQTIIEEKSLVDTVYALKDEVKELKQENKKMKQCLEEELKSRKDLEKLVRKLLKQTDECIRSESSSKTSILQ
B2: Git2, endogenous in murine DC2.4 cells (protein, UniProt Q9JLQ2 1-708)
chain: MSKRLRSSDVCADCNGPDPSWASVNRGTFICDECCSVHRSLGRHISQVRHLKHTAWPPTLLQMVETLYNNGANSIWEHSLLDPASIMSGRRKANPQDKVHPNKAEFIRAKYQMLAFVHRLPCREDDSVTAKDLSKQLHSSVRTGNLETCLRLLSLGAQANFFHPEKGSTPLHVASKAGQILQAELLAVYGADPGTQDSSGKTPVDYARQGGHHELAERLIEIQYELTDRLAFYLCGRKPDHKSGQHFLIPQRADSLDLSELAKAAKKKLQSLSNHLFEELAMDVYDEVDRRETDAVWLATQNHSTLVTETTVVPFLPVNPEYSSTRNQGRQKLARFNAHEFATLVIDILSDAKRRQQGSPLSRSKDNVELILRTVSTQHSTESQDNDQPDYDSVASDEDTDVETRASKANRQKLQTLQSENSSLRRQATASACQVQTGSDHKDTASHSSLKRRPSARGSRPMSMYETGSGQKPYLPMGEASHPEESRTRLQPFPTHIGRSALVTSSSSLPSFPSTLSWSRDESARRASRLEKQNSTPESDYDNTACDPEPDDTGSTRKGRQRSMLWQGDGLLPDTAEPHSVPSPTLPSTEDVIRKTEQITKNIQELLRAAQENKHDSYIPCSERIHVAVTEMAALFPKKPKSDTVRTSLRLLTSSAYRLQSECRKALPGDSSLPTDVQLVTQQVIQCAYDIAKAAKQLVTITTKENSS
B3: Arhgef7, endogenous in murine DC2.4 cells (protein, UniProt Q9ES28 1-862)
chain: MNSAEQTVTWLITLGVLESPKKTISDPEVFLQASLKDGVVLCRLLERLLPGTIEKVYPEPRNESECLSNIREFLRACGASLRLETFDANDLYQGQNFNKVLSSLVTLNKVTADIGLGSDSVCARPSSHRIKSFDSLGSQSSHSRTSKLLQSQYRSLDMTDNTNSQLVVRAKFNFQQTNEDELSFSKGDVIHVTRVEEGGWWEGTHNGRTGWFPSNYVREIKPSEKPVSPKSGTLKSPPKGFDTTAINKSYYNVVLQNILETEHEYSKELQSVLSTYLRPLQTSDKLSSANTSYLMGNLEEISSFQQVLVQSLEECTKSPEAQQRVGGCFLSLMPQMRTLYLAYCANHPSAVSVLTEHSEDLGEFMETKGASSPGILVLTTGLSKPFMRLDKYPTLLKELERHMEDYHPDRQDIQKSMTAFKNLSAQCQEVRKRKELELQILTEPIRSWEGDDIKTLGSVTYMSQVTIQCAGSEEKNERYLLLFPNLLLMLSASPRMSGFIYQGKLPTTGMTITKLEDSENHRNAFEISGSMIERILVSCTSQQDLHEWVEHLQKQTKVTSVSNPTIKPHSVPSHTLPSHPLTPSSKHADSKPVALTPAYHTLPHPSHHGTPHTTISWGPLEPPKTPKPWSLSCLRPAPPLRPSAALCYKEDLSKSPKTMKKLLPKRKPERKPSDEEFAVRKSTAALEEDAQILKVIEAYCTSAKTRQTLNSTWQGTDLMHNHVLADDDQSSLDSLGRRSSLSRLEPSDLSEDSEYDSIWTAHSYRMGSASRSRKESAPQVLLPEEEKIIVEETKSNGQTVIEEKSLVDTVYALKDEVQELRQDNKKMKKSLEEEQRARKDLEKLVRKVLKNMNDPAWDETNL

Molecular target: TgWIP^WT, wild-type Toxoplasma WAVE complex-interacting protein with a C-terminal HA tag (Toxoplasma gondii)
Assay: affinity purification with mass spectrometry; HA-tagged TgWIP variants pulled down by the HA tag from lysates of DC2.4 cells infected 4 h at MOI 7; host partners by mass spectrometry; values are negative fold changes in peptide counts of the mutant immunoprecipitations relative to TgWIP^WT

| Binder | binding |
| --- | --- |
| B1 | binds |
| B2 | binds |
| B3 | binds |
